Among the data in PMC5269733 are binding values, retold here.

Amino acid sequences for entries named in this document (tags omitted).
UniProt O00571: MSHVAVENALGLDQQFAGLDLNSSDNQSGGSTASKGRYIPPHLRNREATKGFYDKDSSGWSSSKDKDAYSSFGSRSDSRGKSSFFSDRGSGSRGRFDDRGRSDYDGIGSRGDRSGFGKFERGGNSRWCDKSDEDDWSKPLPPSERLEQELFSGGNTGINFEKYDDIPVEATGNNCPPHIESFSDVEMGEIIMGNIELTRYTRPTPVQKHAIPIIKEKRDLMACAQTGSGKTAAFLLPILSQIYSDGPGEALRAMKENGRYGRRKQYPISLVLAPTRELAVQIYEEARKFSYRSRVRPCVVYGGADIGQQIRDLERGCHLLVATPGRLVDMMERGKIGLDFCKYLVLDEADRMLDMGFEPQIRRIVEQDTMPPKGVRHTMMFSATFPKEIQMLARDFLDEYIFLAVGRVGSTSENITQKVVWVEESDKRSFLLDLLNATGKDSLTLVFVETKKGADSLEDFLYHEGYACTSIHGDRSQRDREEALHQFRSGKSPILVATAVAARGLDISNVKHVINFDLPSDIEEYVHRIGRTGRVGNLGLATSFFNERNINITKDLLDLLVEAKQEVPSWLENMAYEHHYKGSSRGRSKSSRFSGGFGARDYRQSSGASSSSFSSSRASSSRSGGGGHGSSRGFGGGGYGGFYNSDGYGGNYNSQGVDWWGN

Results are given in words; binding and its absence hold for the method and conditions named. For part of these data: In cells and extracts the contact can be indirect. Some entries that bind do so weakly or less than the wild type. For part of these data: Tags and fused reporters may be left off the sequences shown.

The target of assay [1] is DDX3 (yeast two-hybrid screening) (UniProt O00571). The assay is described as follows: two-hybrid; yeast two-hybrid screening with DDX3, unpublished data.
Assay [2] deals with T1, Flag-tagged HNF4 (UniProt P41235).
T1 sequence: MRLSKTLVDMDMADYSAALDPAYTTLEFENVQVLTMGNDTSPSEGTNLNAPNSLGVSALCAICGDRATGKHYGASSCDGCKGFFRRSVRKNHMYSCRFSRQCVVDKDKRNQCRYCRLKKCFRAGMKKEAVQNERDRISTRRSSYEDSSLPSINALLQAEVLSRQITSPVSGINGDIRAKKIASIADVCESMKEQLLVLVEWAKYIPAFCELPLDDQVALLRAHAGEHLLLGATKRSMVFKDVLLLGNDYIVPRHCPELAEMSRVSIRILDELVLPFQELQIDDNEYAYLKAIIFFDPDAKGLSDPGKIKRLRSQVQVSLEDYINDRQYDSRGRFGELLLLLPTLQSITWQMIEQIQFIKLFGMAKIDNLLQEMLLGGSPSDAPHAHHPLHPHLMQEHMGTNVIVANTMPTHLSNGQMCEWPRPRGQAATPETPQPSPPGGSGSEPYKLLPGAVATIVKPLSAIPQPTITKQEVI
In words: co-IP; total cell lysates (2 mg) of HuH7 cells co-expressing Flag-HNF4 and HA-SHP, or Flag-SHP and HA-HNF4, on anti-Flag M2 agarose; start of the competition assay.

The target of assay [3] is GST-tagged full length DDX3 (UniProt O00571). In words: pull-down; GST or GST-DDX3 (3 ug) prebound to glutathione Sepharose, incubated with nuclear extracts (200 ug) of HuH7 or HepG2 cells expressing HA-SHP or HA-HNF4, with or without 100 ug/ml RNase A, 4 C, 5 hr; washed with PBS, 0.5% NP40; anti-HA blot; only the target purified.
Assay [4] deals with T2, Flag-tagged SHP (UniProt Q15466).
T2 sequence: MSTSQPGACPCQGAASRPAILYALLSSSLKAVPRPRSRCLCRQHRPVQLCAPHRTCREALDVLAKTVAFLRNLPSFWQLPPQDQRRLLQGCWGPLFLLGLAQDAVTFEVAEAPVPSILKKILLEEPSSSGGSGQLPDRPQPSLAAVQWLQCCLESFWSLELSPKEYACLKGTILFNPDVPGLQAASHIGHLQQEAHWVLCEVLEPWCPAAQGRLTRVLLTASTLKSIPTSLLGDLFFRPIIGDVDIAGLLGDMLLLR
In words: co-IP; total cell lysates (2 mg) of HuH7 cells co-expressing Flag-HNF4 and HA-SHP, or Flag-SHP and HA-HNF4, on anti-Flag M2 agarose; start of the competition assay.

Assay [5] has as its target Flag-tagged DDX3 (UniProt O00571). The assay is described as follows: co-IP; RNase A-treated nuclear extracts (200 ug) of HuH7 cells co-expressing Flag-DDX3 with HA-SHP or HA-HNF4; anti-HA agarose or anti-Flag M2 resin; 20 mM Tris-HCl pH 7.5, 150 mM NaCl, 10% glycerol, 1% Triton X-100, 4 C overnight.

B1: SHP (yeast two-hybrid screening) (protein, UniProt Q15466 1-257)
chain: T2 sequence
For B1, the binding entry in assay [1] is reported as “binds”.

B2: HA-tagged SHP (small heterodimer partner) (protein, UniProt Q15466 1-257)
chain: T2 sequence
On to B2, for which the binding entry in assay [2] and in assay [3] was “binds” in each case.

B3: HA-tagged HNF4 (hepatocyte nuclear factor 4) (protein, UniProt P41235 1-474)
chain: T1 sequence
Turning to B3, the binding entry in assay [4], in assay [5] and in assay [3] was “binds” throughout.
